Data from the supplement of paper PMC10849652.
The list shows a part of the results.

Amino acid sequences for entries named in this document (tags omitted). A change or cut given only in a name is not applied to a line headed by its entry.
UniProt O75964: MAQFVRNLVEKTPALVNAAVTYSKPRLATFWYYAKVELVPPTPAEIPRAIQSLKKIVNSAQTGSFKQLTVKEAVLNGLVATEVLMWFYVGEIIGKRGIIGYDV
UniProt Q06055: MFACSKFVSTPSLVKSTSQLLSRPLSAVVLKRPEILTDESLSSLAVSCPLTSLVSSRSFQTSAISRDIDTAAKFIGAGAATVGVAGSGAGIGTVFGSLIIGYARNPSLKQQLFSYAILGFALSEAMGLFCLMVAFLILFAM
UniProt Q7L266: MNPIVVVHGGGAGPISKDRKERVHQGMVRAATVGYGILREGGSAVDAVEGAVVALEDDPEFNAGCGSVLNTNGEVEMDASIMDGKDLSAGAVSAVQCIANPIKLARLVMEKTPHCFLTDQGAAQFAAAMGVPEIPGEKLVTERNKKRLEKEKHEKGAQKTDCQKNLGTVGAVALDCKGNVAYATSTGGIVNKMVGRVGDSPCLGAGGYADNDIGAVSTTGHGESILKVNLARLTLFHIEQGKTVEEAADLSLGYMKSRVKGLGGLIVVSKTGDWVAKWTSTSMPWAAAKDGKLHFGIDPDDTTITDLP
UniProt Q6DD88: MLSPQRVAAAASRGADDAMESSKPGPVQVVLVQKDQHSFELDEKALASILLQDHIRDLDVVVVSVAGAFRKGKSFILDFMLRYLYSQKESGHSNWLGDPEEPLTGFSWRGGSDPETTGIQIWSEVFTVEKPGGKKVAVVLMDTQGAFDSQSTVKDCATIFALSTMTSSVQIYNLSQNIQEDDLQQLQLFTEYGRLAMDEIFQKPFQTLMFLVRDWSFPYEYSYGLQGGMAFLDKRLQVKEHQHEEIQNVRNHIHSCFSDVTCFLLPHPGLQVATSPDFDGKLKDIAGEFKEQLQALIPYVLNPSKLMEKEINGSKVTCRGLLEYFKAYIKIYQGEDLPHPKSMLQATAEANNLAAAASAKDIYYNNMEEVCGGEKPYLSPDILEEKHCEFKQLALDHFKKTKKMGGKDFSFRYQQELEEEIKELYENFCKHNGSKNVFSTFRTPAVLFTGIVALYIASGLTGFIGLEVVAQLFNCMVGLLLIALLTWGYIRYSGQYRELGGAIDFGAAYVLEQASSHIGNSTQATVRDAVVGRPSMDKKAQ
UniProt Q92747, whole entry, looked up: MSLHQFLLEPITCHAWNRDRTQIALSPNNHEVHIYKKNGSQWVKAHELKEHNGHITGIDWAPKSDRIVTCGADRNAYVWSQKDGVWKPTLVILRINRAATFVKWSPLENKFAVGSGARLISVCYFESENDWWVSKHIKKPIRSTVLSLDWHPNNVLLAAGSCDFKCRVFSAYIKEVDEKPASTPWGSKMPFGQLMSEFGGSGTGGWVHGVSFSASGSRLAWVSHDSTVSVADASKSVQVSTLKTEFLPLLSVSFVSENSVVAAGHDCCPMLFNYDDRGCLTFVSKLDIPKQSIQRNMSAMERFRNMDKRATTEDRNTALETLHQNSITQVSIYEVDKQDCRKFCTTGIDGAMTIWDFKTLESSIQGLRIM
UniProt Q9NT62, whole entry, looked up: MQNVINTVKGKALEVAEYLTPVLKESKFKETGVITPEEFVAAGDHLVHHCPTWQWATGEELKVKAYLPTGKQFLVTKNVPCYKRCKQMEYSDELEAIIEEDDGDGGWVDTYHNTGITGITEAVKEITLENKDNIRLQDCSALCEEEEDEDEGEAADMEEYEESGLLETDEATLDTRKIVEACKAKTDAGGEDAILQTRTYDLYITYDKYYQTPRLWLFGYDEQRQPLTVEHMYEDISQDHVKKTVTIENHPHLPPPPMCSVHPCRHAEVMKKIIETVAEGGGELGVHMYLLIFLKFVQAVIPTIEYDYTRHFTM
UniProt Q6NXE6: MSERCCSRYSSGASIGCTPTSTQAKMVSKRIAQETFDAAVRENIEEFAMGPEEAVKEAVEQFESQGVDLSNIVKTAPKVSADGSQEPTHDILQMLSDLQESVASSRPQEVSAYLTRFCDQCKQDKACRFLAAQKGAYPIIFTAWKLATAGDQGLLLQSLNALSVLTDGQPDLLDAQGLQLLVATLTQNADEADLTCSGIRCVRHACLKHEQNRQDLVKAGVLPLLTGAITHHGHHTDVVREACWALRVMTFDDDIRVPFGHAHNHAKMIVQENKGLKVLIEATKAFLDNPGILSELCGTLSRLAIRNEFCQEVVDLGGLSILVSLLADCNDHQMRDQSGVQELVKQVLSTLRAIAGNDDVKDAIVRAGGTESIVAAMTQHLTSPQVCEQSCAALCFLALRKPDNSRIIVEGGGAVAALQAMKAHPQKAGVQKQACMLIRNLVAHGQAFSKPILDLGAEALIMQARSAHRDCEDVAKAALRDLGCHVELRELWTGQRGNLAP
UniProt O94817, whole entry, looked up: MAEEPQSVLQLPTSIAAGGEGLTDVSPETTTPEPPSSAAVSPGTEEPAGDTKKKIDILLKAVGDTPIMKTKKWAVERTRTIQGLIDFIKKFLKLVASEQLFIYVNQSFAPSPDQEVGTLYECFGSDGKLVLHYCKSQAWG
UniProt P04424, whole entry, looked up: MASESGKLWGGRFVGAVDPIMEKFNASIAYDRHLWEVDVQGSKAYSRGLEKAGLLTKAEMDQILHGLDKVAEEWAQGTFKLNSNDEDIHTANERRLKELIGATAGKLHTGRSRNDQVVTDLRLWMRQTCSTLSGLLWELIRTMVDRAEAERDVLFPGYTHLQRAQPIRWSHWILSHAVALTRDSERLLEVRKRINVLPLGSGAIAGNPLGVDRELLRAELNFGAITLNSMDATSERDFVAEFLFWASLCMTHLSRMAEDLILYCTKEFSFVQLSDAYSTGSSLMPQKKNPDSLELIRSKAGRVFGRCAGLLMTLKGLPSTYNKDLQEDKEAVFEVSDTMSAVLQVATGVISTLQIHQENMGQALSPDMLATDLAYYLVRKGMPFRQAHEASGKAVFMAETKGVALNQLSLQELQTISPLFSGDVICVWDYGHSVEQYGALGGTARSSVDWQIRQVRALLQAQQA
UniProt Q8N3C0, whole entry, looked up: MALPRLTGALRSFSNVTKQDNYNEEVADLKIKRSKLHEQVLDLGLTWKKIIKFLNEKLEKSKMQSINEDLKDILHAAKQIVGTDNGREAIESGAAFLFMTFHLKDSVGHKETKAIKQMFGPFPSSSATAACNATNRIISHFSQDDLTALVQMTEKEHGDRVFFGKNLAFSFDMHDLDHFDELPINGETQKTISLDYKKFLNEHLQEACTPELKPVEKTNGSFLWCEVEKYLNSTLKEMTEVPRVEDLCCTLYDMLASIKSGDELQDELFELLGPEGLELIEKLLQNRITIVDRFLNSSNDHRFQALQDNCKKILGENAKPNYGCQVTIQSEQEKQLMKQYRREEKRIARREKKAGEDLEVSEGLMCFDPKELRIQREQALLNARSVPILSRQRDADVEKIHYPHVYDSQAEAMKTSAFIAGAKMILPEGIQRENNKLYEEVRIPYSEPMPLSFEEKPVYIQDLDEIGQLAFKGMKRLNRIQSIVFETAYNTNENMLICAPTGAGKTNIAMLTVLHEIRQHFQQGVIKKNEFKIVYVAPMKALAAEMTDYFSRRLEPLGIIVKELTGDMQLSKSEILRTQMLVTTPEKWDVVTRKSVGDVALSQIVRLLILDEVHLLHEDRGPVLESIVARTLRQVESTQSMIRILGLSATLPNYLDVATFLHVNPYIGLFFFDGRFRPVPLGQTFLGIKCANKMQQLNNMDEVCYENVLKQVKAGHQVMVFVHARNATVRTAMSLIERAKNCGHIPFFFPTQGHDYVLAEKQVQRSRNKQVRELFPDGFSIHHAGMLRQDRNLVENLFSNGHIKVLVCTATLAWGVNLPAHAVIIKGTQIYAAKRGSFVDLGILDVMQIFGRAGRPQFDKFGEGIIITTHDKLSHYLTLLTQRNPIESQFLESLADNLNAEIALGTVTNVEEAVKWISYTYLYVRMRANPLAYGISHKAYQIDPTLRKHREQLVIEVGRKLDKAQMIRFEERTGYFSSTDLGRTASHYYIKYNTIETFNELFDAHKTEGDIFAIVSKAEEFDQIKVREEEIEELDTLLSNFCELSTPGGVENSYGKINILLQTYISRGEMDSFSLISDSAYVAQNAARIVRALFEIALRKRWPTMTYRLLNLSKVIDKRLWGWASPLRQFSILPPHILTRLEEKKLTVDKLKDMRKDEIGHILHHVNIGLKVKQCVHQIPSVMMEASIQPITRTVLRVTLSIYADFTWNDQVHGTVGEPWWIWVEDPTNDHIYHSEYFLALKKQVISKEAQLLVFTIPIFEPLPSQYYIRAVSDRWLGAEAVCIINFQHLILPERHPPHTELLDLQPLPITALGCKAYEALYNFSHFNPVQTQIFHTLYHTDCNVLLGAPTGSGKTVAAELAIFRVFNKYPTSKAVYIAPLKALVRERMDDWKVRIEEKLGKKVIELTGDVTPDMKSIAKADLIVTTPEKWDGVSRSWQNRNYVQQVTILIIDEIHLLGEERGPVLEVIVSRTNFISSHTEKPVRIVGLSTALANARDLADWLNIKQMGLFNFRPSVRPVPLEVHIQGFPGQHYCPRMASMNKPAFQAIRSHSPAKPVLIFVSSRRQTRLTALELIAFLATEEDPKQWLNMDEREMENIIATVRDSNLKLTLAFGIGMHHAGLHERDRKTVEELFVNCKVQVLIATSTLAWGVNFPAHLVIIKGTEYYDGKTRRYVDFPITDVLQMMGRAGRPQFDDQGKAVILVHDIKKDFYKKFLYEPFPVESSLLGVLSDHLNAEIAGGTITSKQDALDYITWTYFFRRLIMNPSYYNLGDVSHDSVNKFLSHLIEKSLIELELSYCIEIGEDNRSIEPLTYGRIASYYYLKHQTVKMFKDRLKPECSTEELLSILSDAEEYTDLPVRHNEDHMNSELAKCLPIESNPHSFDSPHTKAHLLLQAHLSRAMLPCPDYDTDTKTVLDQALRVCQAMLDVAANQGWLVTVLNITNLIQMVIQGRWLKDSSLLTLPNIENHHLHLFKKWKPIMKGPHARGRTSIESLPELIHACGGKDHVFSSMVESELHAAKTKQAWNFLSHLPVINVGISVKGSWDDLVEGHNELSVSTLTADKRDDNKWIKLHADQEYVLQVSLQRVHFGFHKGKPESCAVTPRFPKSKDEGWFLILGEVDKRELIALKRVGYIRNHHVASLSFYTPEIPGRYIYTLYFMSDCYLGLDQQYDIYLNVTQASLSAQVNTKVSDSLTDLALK
UniProt Q9HD20: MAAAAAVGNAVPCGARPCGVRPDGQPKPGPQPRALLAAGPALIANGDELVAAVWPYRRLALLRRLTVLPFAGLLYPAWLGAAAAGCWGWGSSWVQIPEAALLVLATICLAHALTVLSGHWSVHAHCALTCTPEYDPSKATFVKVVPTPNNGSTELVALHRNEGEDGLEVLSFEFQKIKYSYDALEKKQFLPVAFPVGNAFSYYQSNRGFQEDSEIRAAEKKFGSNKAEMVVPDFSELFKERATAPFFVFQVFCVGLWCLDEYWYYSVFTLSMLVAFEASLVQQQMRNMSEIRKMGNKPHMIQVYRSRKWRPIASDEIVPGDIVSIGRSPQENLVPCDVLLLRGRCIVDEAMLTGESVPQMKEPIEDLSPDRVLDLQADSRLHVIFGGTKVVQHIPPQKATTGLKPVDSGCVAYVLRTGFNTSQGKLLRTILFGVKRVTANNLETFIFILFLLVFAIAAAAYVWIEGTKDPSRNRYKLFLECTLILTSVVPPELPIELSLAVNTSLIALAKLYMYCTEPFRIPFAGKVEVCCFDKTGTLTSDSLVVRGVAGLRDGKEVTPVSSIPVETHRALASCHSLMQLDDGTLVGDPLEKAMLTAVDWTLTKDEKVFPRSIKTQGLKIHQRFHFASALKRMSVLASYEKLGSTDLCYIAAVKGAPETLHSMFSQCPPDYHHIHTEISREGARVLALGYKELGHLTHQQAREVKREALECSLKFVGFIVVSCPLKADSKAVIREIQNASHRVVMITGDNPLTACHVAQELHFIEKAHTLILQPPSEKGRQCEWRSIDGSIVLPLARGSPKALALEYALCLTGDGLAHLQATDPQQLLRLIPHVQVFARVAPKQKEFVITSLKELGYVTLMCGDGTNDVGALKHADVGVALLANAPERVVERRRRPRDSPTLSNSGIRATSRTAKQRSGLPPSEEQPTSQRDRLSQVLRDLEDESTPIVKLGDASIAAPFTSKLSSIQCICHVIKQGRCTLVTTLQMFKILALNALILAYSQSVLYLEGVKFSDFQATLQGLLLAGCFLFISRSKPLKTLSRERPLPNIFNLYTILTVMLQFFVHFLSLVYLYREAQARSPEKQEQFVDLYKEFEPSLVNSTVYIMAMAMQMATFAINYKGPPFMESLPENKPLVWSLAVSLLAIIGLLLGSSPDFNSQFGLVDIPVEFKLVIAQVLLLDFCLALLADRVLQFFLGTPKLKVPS

Key:
Test in all cases: log2 fold change, soluble protein after heating vs DMSO (PISA); higher = thermal stabilisation; K562 cells, 10 uM, 30 min; active = over 0.2 and 3.5 SD of the protein, either way, in both replicates (recomputed)
[1] = compound: CC[C@@H]1C(=O)N(C)c2cnc(Nc3ccc(C(=O)NC4CCN(C)CC4)cc3OC)nc2N1C1CCCC1
Outline: (§1)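 Thermal stability values are relative to control samples and come from duplicates. They are expressed as log2 fold changes. For measurement, K562 cells (2×10^6 cells/mL) received 10 μM compound for 30 min, and aliquots were heated for 3 min over 48°C-58°C, pooled, and extracted at 4°C in PBS with 0.5% NP-40. Soluble protein, the supernatant after 21,000xg for 90 min, was quantified by TMTpro 16plex LC-MS/MS with equalised channel sums.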

[2] = compound: CC[C@@H]1C(=O)N(C)c2cnc(Nc3ccc(C(=O)N[C@H]4CC[C@H](N5CCN(CC6CC6)CC5)CC4)cc3OC)nc2N1C(C)C [volasertib]
Outline: as §1

[3] = compound: CC[C@H](C)N1C=C(C2=C(C=C(C=C21)C3=CN=C(C=C3)N4CCNCC4)C(=O)NCC5=C(C=C(NC5=O)C)C)C
Outline: as §1

[4] = compound: CC[C@H](C)[C@@H](C(=O)N[C@@H]([C@@H](C)O)C(=O)N[C@@H](CC(C)C)C(=O)[C@]1(CO1)C)NC(=O)[C@H]([C@@H](C)CC)N(C)C(=O)C [epoxomicin]
Outline: as §1

[5] = compound: CCn1c(C(=O)N(C2CC2)C2CC2)cc2c3c(ncn3C)c(Nc3cc(C)n(C)n3)nc21
Outline: as §1

[6] = compound: CCn1cc(-c2ccnc3[nH]c(-c4cccc(CN(C)C)c4)cc23)c(-c2ccc(NC(=O)N(C)C)cc2)n1
Outline: as §1

[7] = compound: CN(C)CC(=O)Nc1ccc2[nH]c(=O)c3ccccc3c2c1
Outline: as §1

[8] = compound: CN(CCOC1=CC=C(C=C1)C[C@H]2C(=O)NC(=O)S2)C3=CC=CC=N3 (racemic) [rosiglitazone]
Outline: as §1

[9] = compound: CN1C2=C(C3=C1C(=O)N(N=C3)CC4=CC(=CC=C4)N)SC(=C2)S(=O)C
Outline: as §1

[10] = compound: CN1CCC(CNc2ccc3ncc(-c4cccc(OC(F)(F)F)c4)n3n2)CC1
Outline: as §1

[11] = compound: CN1CCN(CCOc2cc(OC3CCOCC3)c3c(Nc4c(Cl)ccc5c4OCO5)ncnc3c2)CC1 [saracatinib]
Outline: as §1

[12] = compound: CN1CCN(c2nc(C3=C(c4c[nH]c5ccccc45)C(=O)NC3=O)c3ccccc3n2)CC1 [sotrastaurin]
Outline: as §1

[13] = compound: CN1CC[C@H](c2c(O)cc(O)c3c(=O)cc(-c4ccccc4Cl)oc23)[C@H](O)C1 [alvocidib]
Outline: as §1

[14] = compound: CN1CCc2c(c3ccccc3n2Cc2ccc(C(=O)NO)cc2)C1 [Tubastatin A]
Outline: as §1

[15] = compound: CNC(=O)C1=CC=CC=C1NC2=NC(=NC=C2Cl)NC3=C(C=C(C=C3)N4CCOCC4)OC
Outline: as §1

[16] = compound: CNC(=O)c1ccc(Nc2ncc(C(F)(F)F)c(NCc3nccnc3N(C)S(C)(=O)=O)n2)cc1 [defactinib]
Outline: as §1

[17] = compound: CNCc1ccc(-c2[nH]c3cc(F)cc4c3c2CCNC4=O)cc1 [rucaparib]
Outline: as §1

[18] = compound: CNc1nc(-c2ccc3c(N)n[nH]c3c2)cc(N2C[C@@H](C(=O)NC3CCCCC3)CC[C@H]2C)n1
Outline: as §1

[19] = compound: COC(=O)N[C@@H](C)CNc1nccc(-c2cn(C(C)C)nc2-c2cc(Cl)cc(NS(C)(=O)=O)c2F)n1 [encorafenib]
Outline: as §1

[20] = compound: COC(=O)[C@H](CCSC)NC(=O)C1=C(C=C(C=C1)NC[C@H](CS)N)C2=CC=CC=C2
Outline: as §1

Measured: log2 fold change

ATP5MG (UniProt O75964)
inactive: [1] -0.014 | [2] 0.052 | [3] -0.05 | [4] 0.084 | [5] -0.01 | [6] 0.062 | [7] 0.01 | [8] -0.01 | [9] -0.044 | [10] -0.154 | [11] 0.088 | [12] 0.003 | [13] 0.066 | [14] -0.009 | [15] -0.013 | [16] -0.001 | [17] 0.008 | [18] -0.064 | [19] -0.075 | [20] -0.023

ATP5MC2 isoform 2 (UniProt Q06055)
inactive: [1] 0.022 | [2] 0.146 | [3] -0.123 | [4] 0.018 | [5] 0.011 | [6] 0.022 | [7] 0.124 | [8] 0.031 | [9] 0.054 | [10] 0.01 | [11] 0.058 | [12] 0.054 | [13] 0.04 | [14] -0.061 | [15] 0.101 | [16] -0.041 | [17] -0.126 | [18] -0.232 | [19] 0.016 | [20] 0.14

ASRGL1 (UniProt Q7L266)
inactive: [1] -0.034 | [2] 0.01 | [3] -0.016 | [4] -0.015 | [5] -0.058 | [6] 0.016 | [7] 0.025 | [8] 0.05 | [9] -0.049 | [10] -0.069 | [11] 0.093 | [12] 0.048 | [13] -0.007 | [14] 0.019 | [15] 0.047 | [16] -0.099 | [17] 0.025 | [18] -0.046 | [19] -0.045 | [20] 0.046

Two consecutive records from above, quoted:
ATP5MG (UniProt O75964)
inactive: [1] -0.014 | [2] 0.052 | [3] -0.05 | [4] 0.084 | [5] -0.01 | [6] 0.062 | [7] 0.01 | [8] -0.01 | [9] -0.044 | [10] -0.154 | [11] 0.088 | [12] 0.003 | [13] 0.066 | [14] -0.009 | [15] -0.013 | [16] -0.001 | [17] 0.008 | [18] -0.064 | [19] -0.075 | [20] -0.023

ATP5MC2 isoform 2 (UniProt Q06055)
inactive: [1] 0.022 | [2] 0.146 | [3] -0.123 | [4] 0.018 | [5] 0.011 | [6] 0.022 | [7] 0.124 | [8] 0.031 | [9] 0.054 | [10] 0.01 | [11] 0.058 | [12] 0.054 | [13] 0.04 | [14] -0.061 | [15] 0.101 | [16] -0.041 | [17] -0.126 | [18] -0.232 | [19] 0.016 | [20] 0.14

(cont.)

ATL3 (UniProt Q6DD88)
inactive: [1] -0.034 | [2] -0.134 | [3] 0.023 | [4] 0.02 | [5] 0.023 | [6] -0.072 | [7] 0.016 | [8] 0.024 | [9] -0.045 | [10] -0.126 | [11] 0.025 | [12] 0 | [13] -0.064 | [14] -0.004 | [15] -0.029 | [16] 0.026 | [17] -0.02 | [18] -0.025 | [19] 0.009 | [20] -0.017

ARPC1A (UniProt Q92747)
inactive: [1] 0.096 | [2] 0.021 | [3] -0.025 | [4] -0.003 | [5] 0.063 | [6] -0.034 | [7] -0.01 | [8] -0.072 | [9] -0.026 | [10] 0.098 | [11] 0.085 | [12] -0.017 | [13] 0.039 | [14] -0.139 | [15] 0.064 | [16] -0.004 | [17] -0.037 | [18] -0.087 | [19] -0.024 | [20] -0.088

ASPM (UniProt Q8IZT6)
inactive: [1] 0.103 | [2] 0.095 | [3] 0.1 | [4] 0.112 | [5] 0.039 | [6] 0.074 | [7] 0.013 | [8] -0.065 | [9] -0.096 | [10] -0.307 | [11] -0.009 | [12] -0.012 | [13] -0.125 | [14] -0.045 | [15] 0.035 | [16] -0.096 | [17] 0.209 | [18] -0.083 | [19] -0.044 | [20] 0.039

ATM (UniProt Q13315)
inactive: [1] 0.008 | [2] -0.098 | [3] 0.029 | [4] 0.042 | [5] -0.008 | [6] -0.055 | [7] 0.018 | [8] 0.046 | [9] 0.007 | [10] -0.017 | [11] -0.007 | [12] 0.021 | [13] -0.022 | [14] 0.081 | [15] -0.039 | [16] 0.002 | [17] -0.015 | [18] 0.08 | [19] -0.036 | [20] 0.014

ATG3 (UniProt Q9NT62)
inactive: [1] -0.032 | [2] -0.056 | [3] 0.02 | [4] 0.044 | [5] -0.012 | [6] -0.03 | [7] -0.01 | [8] 0.01 | [9] -0.023 | [10] -0.087 | [11] 0.022 | [12] 0.037 | [13] -0.011 | [14] -0.01 | [15] -0.005 | [16] -0.01 | [17] -0.062 | [18] 0.007 | [19] 0.011 | [20] 0.004

ARMC6 (UniProt Q6NXE6)
inactive: [1] 0.09 | [2] -0.067 | [3] 0.273 | [4] -0.13 | [5] -0.008 | [6] 0.003 | [7] -0.008 | [8] 0.004 | [9] 0.435 | [10] 0.074 | [11] -0.062 | [12] -0.077 | [13] 0.223 | [14] 0.053 | [15] -0.071 | [16] 0.145 | [17] 0.475 | [18] 0.015 | [19] 0.236 | [20] -0.156

ATG12 (UniProt O94817)
inactive: [1] -0.047 | [2] -0.059 | [3] 0.061 | [4] -0.013 | [5] 0.024 | [6] -0.139 | [7] -0.015 | [8] 0.038 | [9] -0.073 | [10] -0.023 | [11] -0.013 | [12] -0.012 | [13] -0.063 | [14] 0.043 | [15] 0.039 | [16] -0.007 | [17] 0.05 | [18] -0.011 | [19] -0.004 | [20] -0.017

ATG2B (UniProt Q96BY7)
inactive: [1] -0.036 | [2] -0.076 | [3] -0.025 | [4] 0.01 | [5] 0.005 | [6] -0.013 | [7] 0.001 | [8] 0.004 | [9] -0.018 | [10] -0.117 | [11] 0.003 | [12] 0.001 | [13] 0 | [14] -0.039 | [15] -0.008 | [16] -0.008 | [17] -0.028 | [18] -0.032 | [19] -0.018 | [20] 0.039

ATP2A2 (UniProt P16615)
inactive: [1] -0.026 | [2] -0.123 | [3] 0.02 | [4] 0.008 | [5] -0.001 | [6] -0.044 | [7] 0.003 | [8] 0.041 | [9] -0.076 | [10] 0.036 | [11] 0.03 | [12] 0.012 | [13] -0.053 | [14] -0.044 | [15] 0.006 | [16] -0.031 | [17] -0.034 | [18] 0.1 | [19] 0.035 | [20] -0.016

ASL (UniProt P04424)
inactive: [1] -0.012 | [2] 0.047 | [3] -0.007 | [4] 0.032 | [5] 0.016 | [6] -0.032 | [7] -0.008 | [8] 0.008 | [9] -0.032 | [10] -0.029 | [11] 0.027 | [12] 0.021 | [13] -0.003 | [14] -0.01 | [15] -0.016 | [16] -0.012 | [17] -0.023 | [18] -0.023 | [19] -0.003 | [20] 0.037

ASCC3 (UniProt Q8N3C0)
inactive: [1] 0.146 | [2] -0.037 | [3] -0.094 | [4] -0.22 | [5] -0.107 | [6] 0.047 | [7] -0.011 | [8] -0.147 | [9] 0.211 | [10] -0.006 | [11] -0.148 | [12] -0.167 | [13] 0.25 | [14] 0.142 | [15] 0.075 | [16] 0.168 | [17] 0.229 | [18] 0.09 | [19] -0.031 | [20] -0.015

ATP13A1 (UniProt Q9HD20)
inactive: [1] 0.035 | [2] 0.073 | [3] 0 | [4] 0.033 | [5] -0.038 | [6] 0.016 | [7] 0.022 | [8] 0.034 | [9] -0.066 | [10] -0.063 | [11] 0.032 | [12] 0.005 | [13] -0.042 | [14] -0.021 | [15] -0.01 | [16] -0.02 | [17] -0.034 | [18] -0.003 | [19] 0.023 | [20] -0.012
